Laboratory results: PubChem BioAssay AID652243 (Drosophila RNAi Screening Center, 2013)
Assay: 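Knock-downs that decrease or increase androgen receptor reporter signal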 (primary screen). System: Drosophila S2R+ cells. Knock-down reagent: long dsRNA against Drosophila genes. Timing: 72 h (48 h, then 24 h hormone). Conditions: synthetic androgen R1881 at 10 nM for 24 h. Read-out: 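Firefly light from an androgen-responsive reporter and Renilla control light per well, raw and unnormalised, for each of two replicates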. Direction: firefly reporter light: higher = more light from androgen-responsive reporter; Renilla control light: higher = more constitutive control signal (cell number, transfection). Call rule: 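Across duplicate plates, a knock-down whose log firefly/Renilla ratio shifted a set fold down or up from the GFP/LacZ control mean was a hit; the downward cut appears as both 1.5 and 3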. Calls: active = hit: reporter lowered or raised; inactive = no hit.
In all, the deposit lists about 24,000 reagents; shown is an unselected part of those that have a named target and a result. Of all reagents, 246 (1%) got an active call. 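Plates not normalised; calls are printed but the firefly/Renilla ratio behind them is not deposited; fold cut for lowering reported inconsistently.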 Raw values vary from plate to plate and are shown uncorrected. A plus sign joins genes that one reagent is predicted to hit. Reagent sequences are not shown. Not given: the amount of reagent.

no.	gene	DRSC id	firefly reporter light, replicate 1	firefly reporter light, replicate 2	Renilla control light, replicate 1	Renilla control light, replicate 2	call
1	Femcoat	DRSC18061	1.01e5	1.67e5	2.46e6	2.50e6	inactive
2	Femcoat	DRSC28792	3.64e5	3.05e5	1.14e6	1.53e6	inactive
3	Ugt37C2 (UDP-glycosyltransferase family 37 member C2)	DRSC02247	2.19e5	2.56e5	1.74e6	1.57e6	inactive
4	CG12589	DRSC12215	68291	66362	1.98e6	1.45e6	inactive
5	CG11857	DRSC14411	2.44e5	3.09e5	1.84e6	1.80e6	inactive
6	Hen1 (Hen1 methyltransferase)	DRSC06139	1.15e6	1.03e6	1.80e6	1.71e6	inactive
7	Hen1 (Hen1 methyltransferase)	DRSC06140	1.98e5	1.77e5	1.04e6	1.19e6	inactive
8	Hen1 (Hen1 methyltransferase)	DRSC26993	4.01e5	2.89e5	1.11e6	8.71e5	inactive
9	CG5273	DRSC18612	3.65e5	2.67e5	2.79e6	2.37e6	inactive
10	CR34254 (pseudo)	DRSC38834	1.34e6	7.35e5	2.48e6	1.64e6	inactive
11	Rsod (Related to Sod)	DRSC15424	2.50e5	1.99e5	2.11e6	2.65e6	inactive
12	CG14505	DRSC06476	1.17e5	89781	2.13e6	2.13e6	inactive
13	Ahcy (Adenosylhomocysteinase)	DRSC19329	1.10e5	83529	4.79e5	4.27e5	inactive
14	Ahcy (Adenosylhomocysteinase)	DRSC27304	4.19e5	3.01e5	8.80e5	6.68e5	inactive
15	Cpr50Cb (Cuticular protein 50Cb)	DRSC06975	1.24e5	1.34e5	2.98e6	2.98e6	inactive
16	Cpr50Cb (Cuticular protein 50Cb)	DRSC25171	1.44e6	1.47e6	9.60e5	1.24e6	inactive
17	CG3156	DRSC18503	71708	91357	7.41e5	5.44e5	inactive
18	CG3156	DRSC27939	1.07e6	6.28e5	3.78e6	1.74e6	inactive
19	CG17618 (retired record) + CG45049	DRSC16163	2.14e5	2.28e5	3.16e6	3.20e6	inactive
20	CG17618 (retired record) + CG45049	DRSC23175	6.69e5	6.87e5	1.87e6	2.43e6	inactive
21	Pglym87 (Phosphoglyceromutase 87)	DRSC15252	68462	1.23e5	7.18e5	1.10e6	inactive
22	Pglym87 (Phosphoglyceromutase 87)	DRSC26066	2.81e5	2.33e5	8.20e5	8.79e5	inactive
23	Shark (SH2 ankyrin repeat kinase)	DRSC07680	8.10e5	8.85e5	1.13e6	1.33e6	inactive
24	Shark (SH2 ankyrin repeat kinase)	DRSC28527	3.34e5	6.97e5	7.86e5	1.25e6	inactive
25	Shark (SH2 ankyrin repeat kinase)	DRSC37025					inactive
